The target of test [1] is T1, GST tagged LCMV-Z (wild type) (Lymphocytic choriomeningitis virus (LCMV)) (UniProt P18541).
T1 sequence: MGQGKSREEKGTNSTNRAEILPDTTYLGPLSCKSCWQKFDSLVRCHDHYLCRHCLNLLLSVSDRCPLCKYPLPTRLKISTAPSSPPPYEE
The experiment in a line: pull-down; both purified.

By UniProt entry, the sequences of proteins in these tests, tags left out.
UniProt P14240: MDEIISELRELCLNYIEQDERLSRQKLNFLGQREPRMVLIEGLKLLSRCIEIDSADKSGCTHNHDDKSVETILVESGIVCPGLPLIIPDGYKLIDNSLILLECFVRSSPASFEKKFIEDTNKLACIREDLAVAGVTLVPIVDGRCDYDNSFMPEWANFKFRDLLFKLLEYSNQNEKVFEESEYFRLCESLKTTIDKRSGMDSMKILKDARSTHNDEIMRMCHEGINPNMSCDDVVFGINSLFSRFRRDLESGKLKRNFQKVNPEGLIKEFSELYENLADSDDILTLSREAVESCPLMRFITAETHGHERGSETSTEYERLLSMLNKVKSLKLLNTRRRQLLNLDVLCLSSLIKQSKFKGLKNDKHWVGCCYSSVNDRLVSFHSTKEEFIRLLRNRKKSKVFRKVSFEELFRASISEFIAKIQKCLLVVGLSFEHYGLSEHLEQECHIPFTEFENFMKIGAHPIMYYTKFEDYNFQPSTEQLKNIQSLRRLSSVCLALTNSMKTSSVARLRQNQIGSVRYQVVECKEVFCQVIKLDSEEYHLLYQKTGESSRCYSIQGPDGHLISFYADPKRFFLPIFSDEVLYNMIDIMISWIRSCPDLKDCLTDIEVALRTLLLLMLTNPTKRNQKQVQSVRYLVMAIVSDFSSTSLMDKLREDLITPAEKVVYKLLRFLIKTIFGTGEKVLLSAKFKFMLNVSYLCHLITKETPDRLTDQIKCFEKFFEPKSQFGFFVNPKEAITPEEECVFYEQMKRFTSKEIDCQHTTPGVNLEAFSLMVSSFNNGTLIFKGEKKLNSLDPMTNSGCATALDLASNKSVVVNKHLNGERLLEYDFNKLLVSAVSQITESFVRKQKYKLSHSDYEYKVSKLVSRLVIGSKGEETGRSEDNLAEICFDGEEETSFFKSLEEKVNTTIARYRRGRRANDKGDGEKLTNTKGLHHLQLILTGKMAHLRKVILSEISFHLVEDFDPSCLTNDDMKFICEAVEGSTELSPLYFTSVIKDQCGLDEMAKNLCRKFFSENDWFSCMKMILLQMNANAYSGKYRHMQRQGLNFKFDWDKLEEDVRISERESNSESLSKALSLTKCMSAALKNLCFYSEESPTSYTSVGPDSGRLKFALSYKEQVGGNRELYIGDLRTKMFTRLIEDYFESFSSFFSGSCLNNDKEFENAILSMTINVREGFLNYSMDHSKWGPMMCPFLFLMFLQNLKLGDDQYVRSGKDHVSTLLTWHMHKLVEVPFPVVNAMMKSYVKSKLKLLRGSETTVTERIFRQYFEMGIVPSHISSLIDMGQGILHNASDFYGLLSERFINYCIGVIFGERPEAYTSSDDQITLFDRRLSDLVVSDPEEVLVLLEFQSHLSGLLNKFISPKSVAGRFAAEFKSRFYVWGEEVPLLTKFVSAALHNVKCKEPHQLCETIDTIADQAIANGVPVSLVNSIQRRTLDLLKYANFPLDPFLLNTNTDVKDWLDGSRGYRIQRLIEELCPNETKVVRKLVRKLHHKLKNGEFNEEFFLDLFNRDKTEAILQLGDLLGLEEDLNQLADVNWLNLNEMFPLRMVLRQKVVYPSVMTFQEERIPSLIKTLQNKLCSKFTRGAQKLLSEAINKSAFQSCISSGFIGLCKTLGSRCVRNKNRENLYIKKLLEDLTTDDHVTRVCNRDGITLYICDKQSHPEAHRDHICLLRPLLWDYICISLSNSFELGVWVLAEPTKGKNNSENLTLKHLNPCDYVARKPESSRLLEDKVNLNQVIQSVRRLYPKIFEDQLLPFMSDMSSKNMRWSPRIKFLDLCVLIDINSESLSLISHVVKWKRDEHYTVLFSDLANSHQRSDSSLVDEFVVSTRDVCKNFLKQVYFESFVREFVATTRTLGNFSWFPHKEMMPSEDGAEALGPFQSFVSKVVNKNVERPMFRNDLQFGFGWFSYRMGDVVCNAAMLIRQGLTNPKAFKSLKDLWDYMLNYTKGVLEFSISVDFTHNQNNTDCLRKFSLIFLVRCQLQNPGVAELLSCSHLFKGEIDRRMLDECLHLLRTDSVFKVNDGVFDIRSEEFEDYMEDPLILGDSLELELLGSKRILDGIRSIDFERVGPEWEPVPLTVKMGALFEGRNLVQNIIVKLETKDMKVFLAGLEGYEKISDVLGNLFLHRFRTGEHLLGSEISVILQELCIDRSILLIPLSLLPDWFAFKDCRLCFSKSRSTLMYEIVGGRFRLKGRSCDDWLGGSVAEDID

Test [2] addresses T2, Lymphocytic choriomeningitis virus RING finger Z matrix protein (Lymphocytic choriomeningitis virus (LCMV)) (UniProt P18541).
T2 sequence: T1 sequence
As to the kind of experiment: cryo-EM structure; both purified.

Results are given in words; binding and its absence hold for the method and conditions named. Some entries that bind do so weakly or less than the wild type. For some assays here: Sequences can lack the tags named with a protein.

With “Lymphocytic choriomeningitis virus large polymerase (L) (from UniProt P14240 1-2210) (enzyme)”, the binding result in test [1] and in test [2] was “binds” throughout.

Source of the values: PMC10501185.
